Results reported in patent publication US20230330051A1, “METHOD FOR MODULATING WEIGHT” (Yeda Research and Development Co. Ltd., priority 2020, published 2023).

Experiments:
[1] = Serum metabolomic profiling of smoking and non-smoking mice with or without antibiotics (linear mixed model); assay type: in vivo; conditions: serum metabolite level in smoking vs non-smoking mice
[2] = Targeted mass spectrometry of serum metabolites in mice; assay type: in vivo; conditions: targeted MS, smoking vs non-smoking and antibiotics-treated smoking mice
[3] = Metabolic cage analysis of DMG- or PBS-supplemented mice; assay type: in vivo, C57BL/6J male mice; conditions: DMG- vs PBS-supplemented mice, metabolic cages, 172 hours

CCCCC/C=C\C/C=C\C/C=C\CCCCC(=O)O[C@H](COC(=O)CCCCCCCCCCCCCCC)COP(=O)([O-])OCC[N+](C)(C)C [1-palmitoyl-2-gamma-linolenoyl-GPC (16:0/18:3n6)]
SMK/NS direction [1]: Decreased

CN(C)CC(=O)O [DMG, N,N-Dimethylglycine]
Serum levels in smoking mice [2]: higher
SMK/NS direction [1]: Increased
Energy expenditure [3]: comparable
Locomotion activity [3]: comparable
RER [3]: comparable
Total caloric uptake [3]: comparable

CCCCCC(=O)NCC(=O)O [Hexanoylglycine]
SMK/NS direction [1]: Decreased

C[N+](C)(C)CC(=O)O [betaine]
Serum levels in smoking mice [2]: higher

hexadecadienoate (16:2n6)
SMK/NS direction [1]: Decreased
